Here are results for 49 molecules from article PMC5327418.

By UniProt entry, the sequences of proteins in these tests, tags left out.
UniProt P32569: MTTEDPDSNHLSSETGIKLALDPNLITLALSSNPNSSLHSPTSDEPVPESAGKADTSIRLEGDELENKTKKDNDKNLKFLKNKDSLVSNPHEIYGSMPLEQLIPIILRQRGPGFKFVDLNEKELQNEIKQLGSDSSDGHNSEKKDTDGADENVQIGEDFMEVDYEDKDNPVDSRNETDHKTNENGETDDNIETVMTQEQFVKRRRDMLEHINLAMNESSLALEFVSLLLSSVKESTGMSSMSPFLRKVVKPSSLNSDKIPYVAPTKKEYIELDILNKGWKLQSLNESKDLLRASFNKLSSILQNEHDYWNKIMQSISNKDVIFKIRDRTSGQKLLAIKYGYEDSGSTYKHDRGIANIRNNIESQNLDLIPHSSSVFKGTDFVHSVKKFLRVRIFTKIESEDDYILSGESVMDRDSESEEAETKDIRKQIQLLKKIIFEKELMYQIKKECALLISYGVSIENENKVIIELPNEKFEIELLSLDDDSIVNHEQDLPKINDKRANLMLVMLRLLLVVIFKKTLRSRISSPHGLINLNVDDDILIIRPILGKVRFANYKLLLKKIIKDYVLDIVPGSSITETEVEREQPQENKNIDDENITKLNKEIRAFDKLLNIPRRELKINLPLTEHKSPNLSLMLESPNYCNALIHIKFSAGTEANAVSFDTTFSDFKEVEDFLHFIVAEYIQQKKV
UniProt P04147: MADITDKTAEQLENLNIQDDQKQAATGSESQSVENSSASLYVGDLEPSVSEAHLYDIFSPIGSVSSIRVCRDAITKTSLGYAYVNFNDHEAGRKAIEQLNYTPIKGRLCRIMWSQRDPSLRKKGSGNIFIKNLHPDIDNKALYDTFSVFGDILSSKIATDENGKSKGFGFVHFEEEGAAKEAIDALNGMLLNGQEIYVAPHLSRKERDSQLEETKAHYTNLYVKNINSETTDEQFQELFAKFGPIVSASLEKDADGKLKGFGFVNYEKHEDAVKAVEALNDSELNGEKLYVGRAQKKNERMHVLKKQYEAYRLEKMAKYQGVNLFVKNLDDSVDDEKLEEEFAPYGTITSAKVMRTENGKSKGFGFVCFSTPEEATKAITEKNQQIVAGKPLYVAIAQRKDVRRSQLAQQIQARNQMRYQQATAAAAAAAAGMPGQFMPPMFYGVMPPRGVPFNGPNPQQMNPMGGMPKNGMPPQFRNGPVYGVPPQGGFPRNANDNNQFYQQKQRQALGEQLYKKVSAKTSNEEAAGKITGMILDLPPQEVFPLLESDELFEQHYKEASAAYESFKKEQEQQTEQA
UniProt Q12692: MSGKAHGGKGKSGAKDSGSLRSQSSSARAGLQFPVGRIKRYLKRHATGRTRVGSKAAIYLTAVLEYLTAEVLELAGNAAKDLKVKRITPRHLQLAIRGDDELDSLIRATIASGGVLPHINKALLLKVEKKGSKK
UniProt P02294: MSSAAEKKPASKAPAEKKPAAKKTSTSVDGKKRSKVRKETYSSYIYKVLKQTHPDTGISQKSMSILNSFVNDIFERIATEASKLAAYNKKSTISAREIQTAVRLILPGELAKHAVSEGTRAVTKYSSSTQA
UniProt P38889: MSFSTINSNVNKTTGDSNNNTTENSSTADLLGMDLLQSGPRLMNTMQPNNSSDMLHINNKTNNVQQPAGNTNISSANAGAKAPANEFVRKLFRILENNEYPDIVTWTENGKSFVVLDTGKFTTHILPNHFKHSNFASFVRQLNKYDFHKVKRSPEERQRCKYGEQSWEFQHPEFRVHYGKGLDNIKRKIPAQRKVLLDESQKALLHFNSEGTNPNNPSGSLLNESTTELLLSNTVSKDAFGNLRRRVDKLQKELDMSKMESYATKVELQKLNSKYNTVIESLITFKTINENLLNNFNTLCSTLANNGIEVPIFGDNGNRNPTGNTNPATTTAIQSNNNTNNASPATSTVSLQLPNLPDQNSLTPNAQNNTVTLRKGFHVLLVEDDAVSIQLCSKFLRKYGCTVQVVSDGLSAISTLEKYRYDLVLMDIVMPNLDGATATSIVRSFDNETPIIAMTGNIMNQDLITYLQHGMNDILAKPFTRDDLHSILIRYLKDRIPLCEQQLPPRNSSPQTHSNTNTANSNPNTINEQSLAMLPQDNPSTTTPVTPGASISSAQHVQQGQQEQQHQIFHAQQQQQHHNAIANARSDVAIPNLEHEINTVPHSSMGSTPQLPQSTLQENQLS
UniProt P38811: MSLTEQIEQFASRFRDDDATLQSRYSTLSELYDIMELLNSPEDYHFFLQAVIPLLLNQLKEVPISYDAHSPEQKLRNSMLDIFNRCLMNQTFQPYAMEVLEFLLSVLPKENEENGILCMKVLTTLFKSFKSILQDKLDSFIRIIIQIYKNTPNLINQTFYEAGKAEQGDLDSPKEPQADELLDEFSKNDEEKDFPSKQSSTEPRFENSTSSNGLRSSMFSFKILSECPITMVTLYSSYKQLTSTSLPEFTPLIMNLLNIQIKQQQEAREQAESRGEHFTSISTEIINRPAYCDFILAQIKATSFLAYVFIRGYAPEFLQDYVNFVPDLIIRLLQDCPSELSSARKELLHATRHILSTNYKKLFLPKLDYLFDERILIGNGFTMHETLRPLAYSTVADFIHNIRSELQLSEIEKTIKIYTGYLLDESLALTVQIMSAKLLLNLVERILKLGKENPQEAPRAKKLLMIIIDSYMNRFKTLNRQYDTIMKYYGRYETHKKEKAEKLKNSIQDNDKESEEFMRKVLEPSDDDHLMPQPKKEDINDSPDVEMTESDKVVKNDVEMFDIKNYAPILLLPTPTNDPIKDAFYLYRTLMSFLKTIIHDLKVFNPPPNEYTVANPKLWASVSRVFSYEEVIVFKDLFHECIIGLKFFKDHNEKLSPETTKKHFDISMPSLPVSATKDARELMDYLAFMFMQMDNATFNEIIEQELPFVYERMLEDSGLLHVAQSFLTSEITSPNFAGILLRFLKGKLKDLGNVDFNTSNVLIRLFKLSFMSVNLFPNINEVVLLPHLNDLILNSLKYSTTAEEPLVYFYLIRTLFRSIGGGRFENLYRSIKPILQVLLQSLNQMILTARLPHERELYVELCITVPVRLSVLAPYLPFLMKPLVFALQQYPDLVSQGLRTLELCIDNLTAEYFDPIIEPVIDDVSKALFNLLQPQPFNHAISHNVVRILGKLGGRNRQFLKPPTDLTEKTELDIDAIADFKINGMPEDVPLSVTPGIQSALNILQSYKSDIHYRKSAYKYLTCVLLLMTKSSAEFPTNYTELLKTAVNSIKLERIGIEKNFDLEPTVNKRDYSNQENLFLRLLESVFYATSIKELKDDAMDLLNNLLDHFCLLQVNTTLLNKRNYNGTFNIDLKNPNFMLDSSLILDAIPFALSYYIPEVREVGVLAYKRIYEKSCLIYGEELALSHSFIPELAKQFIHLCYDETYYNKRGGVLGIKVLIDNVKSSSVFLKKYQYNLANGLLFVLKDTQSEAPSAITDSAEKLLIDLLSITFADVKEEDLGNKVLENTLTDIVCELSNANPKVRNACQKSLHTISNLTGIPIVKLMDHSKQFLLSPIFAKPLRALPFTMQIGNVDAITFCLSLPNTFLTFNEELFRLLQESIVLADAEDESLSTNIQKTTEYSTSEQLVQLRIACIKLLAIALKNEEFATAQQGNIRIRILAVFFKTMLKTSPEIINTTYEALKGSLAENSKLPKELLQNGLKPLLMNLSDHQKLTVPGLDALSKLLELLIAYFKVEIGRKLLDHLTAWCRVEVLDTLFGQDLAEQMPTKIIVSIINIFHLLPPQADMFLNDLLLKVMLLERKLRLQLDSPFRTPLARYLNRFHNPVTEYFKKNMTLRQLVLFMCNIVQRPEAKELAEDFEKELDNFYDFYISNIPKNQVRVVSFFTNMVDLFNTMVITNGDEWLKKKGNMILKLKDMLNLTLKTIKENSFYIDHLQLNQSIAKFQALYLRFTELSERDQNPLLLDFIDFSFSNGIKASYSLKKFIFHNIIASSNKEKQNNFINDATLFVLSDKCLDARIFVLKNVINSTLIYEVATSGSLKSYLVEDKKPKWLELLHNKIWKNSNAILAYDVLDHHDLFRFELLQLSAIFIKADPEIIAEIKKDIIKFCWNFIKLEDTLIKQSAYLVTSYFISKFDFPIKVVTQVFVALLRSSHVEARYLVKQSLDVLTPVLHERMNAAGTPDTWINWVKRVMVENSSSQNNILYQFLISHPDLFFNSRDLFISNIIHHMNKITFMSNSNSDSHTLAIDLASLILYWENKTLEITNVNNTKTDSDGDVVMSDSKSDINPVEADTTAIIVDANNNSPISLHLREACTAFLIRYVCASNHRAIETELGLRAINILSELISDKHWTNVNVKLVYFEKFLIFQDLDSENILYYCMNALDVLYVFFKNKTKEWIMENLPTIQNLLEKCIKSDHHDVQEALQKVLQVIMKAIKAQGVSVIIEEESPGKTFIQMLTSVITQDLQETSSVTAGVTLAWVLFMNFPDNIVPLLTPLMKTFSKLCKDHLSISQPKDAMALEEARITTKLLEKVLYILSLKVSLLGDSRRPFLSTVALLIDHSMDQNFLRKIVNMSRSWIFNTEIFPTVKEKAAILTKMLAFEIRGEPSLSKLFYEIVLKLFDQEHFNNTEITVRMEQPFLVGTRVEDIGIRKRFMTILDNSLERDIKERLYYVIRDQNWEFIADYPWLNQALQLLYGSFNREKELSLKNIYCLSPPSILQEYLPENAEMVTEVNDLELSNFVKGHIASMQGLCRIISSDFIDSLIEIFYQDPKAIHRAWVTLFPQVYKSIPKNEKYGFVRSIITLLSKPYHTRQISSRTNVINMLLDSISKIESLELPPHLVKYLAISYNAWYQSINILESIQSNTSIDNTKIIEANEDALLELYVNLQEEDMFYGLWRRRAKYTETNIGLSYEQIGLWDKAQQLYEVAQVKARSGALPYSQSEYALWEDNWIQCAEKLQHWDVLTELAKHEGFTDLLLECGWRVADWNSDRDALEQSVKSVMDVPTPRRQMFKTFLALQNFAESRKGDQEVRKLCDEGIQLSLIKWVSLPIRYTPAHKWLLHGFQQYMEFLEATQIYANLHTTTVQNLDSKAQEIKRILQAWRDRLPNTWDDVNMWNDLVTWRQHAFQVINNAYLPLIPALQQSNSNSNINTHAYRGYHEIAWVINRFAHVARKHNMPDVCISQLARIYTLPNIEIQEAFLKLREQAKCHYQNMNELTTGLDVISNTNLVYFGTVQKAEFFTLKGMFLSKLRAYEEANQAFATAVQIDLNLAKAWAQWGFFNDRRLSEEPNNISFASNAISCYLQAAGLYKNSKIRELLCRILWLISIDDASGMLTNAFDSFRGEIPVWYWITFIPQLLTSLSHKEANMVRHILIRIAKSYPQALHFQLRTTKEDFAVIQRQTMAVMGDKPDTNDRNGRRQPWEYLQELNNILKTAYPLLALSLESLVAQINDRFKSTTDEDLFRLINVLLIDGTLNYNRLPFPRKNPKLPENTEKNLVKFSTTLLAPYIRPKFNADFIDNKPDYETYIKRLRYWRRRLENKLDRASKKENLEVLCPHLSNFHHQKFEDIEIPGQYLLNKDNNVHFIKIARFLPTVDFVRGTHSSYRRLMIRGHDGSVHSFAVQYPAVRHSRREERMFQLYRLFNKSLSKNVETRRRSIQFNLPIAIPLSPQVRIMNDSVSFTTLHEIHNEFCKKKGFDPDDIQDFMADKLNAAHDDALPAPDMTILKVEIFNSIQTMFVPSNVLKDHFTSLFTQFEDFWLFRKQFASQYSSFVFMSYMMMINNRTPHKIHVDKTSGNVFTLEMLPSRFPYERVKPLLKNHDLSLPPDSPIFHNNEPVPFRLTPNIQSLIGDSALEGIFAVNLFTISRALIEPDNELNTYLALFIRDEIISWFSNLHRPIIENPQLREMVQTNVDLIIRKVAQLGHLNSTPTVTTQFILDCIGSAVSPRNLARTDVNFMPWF
UniProt P53968: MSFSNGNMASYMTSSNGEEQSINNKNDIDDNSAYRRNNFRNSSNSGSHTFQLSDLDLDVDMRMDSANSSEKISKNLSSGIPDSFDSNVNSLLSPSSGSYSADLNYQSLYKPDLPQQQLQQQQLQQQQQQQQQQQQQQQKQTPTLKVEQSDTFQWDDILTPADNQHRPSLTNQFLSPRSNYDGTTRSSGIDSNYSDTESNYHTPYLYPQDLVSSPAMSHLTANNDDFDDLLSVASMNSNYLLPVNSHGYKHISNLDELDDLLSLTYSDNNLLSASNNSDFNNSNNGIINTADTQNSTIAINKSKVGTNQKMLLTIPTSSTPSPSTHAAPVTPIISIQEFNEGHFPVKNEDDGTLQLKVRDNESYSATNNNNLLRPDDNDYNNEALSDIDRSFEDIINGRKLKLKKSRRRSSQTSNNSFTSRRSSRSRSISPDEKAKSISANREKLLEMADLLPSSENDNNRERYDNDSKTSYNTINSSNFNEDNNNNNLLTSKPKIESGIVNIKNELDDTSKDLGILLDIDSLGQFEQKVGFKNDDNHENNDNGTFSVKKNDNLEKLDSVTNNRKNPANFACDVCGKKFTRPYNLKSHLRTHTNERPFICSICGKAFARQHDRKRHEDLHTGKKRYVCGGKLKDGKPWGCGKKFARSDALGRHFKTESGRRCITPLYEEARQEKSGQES

In the experiment the target is Med17-HA (S. cerevisiae (endogenous in S288c)) (UniProt P32569). The experiment can be described thus: affinity purification with mass spectrometry; CoIP of Med17-HA on anti-HA magnetic beads from cryoground yeast lysate, 2 h at 4 °C; 20 mM HEPES pH 7.5, 300 mM KOAc, 10% glycerol, 0.01% NP-40, 6 mM MnSO4, 1 mM DTT, Cyanase nuclease; parallel control CoIP from 15N-labelled wild type cells, mixing after purification (MAP); GeLC-MS/MS, three biological replicates.

These are yes or no findings as the source states them, for the method shown. In cells and extracts the contact can be indirect. Here binding means that the protein was enriched with, or labelled near, the bait; the list need not be complete. A no says only that the protein was not detected with the bait.

For the molecule Rsc7 (from UniProt P32832 1-435), the binding result was “binds”.

As to Imdh2 (from UniProt P38697 1-523), the binding entry is “binds”.

In the case of Pabp (from UniProt P04147 1-577), the binding entry was “binds”.

On to Net1 (from UniProt P47035 1-1189), for which the binding result is reported as “binds”.

Regarding Mdn1 (from UniProt Q12019 1-4910), the binding entry is “binds”.

Consider Sir2 (from UniProt P06700 1-562), for which the binding entry is on record as “binds”.

For Imdh4 (from UniProt P50094 1-524), the binding result is listed as “binds”.

On to H2AZ (from UniProt Q12692 1-134), for which the binding result was “binds”.

Consider H2B2 (from UniProt P02294 1-131), for which the binding result is given as “binds”.

On to Arp9 (from UniProt Q05123 1-467), for which the binding result is listed as “binds”.

Turning to Brr2 (from UniProt P32639 1-2163), the binding entry is on record as “binds”.

Regarding Spt7 (from UniProt P35177 1-1332), the binding result was “binds”.

As to Xrn1 (from UniProt P22147 1-1528), the binding result is on record as “binds”.

Sth1 (from UniProt P32597 1-1359): the binding entry is given as “binds”.

For Rrn5 (from UniProt Q02983 1-363), the binding entry is recorded as “binds”.

Skn7 (from UniProt P38889 1-622): the binding entry is on record as “binds”.

Swi3 (from UniProt P32591 1-825): the binding entry is given as “binds”.

With Gcn4 (from UniProt P03069 1-281), the binding result is listed as “binds”.

Regarding Imb1 (from UniProt Q06142 1-861), the binding result is “binds”.

With Snf5 (from UniProt P18480 1-905), the binding result is given as “binds”.

As for Rsc6 (from UniProt P25632 1-483), the binding entry is recorded as “binds”.

Consider Tra1 (from UniProt P38811 1-3744), for which the binding entry is “binds”.

As to Yc21b (from UniProt P25384 1-1770), the binding entry is on record as “binds”.

As to Snf6 (from UniProt P18888 1-332), the binding result is “binds”.

Turning to Chd1 (from UniProt P32657 1-1468), the binding entry was “no binding”.

For the molecule Ima1 (from UniProt Q02821 1-542), the binding entry was “binds”.

As to Msn4 (from UniProt P33749 1-630), the binding entry is listed as “binds”.

As for Spt16 (from UniProt P32558 1-1035), the binding entry is listed as “binds”.

On to Taf14 (from UniProt P35189 1-244), for which the binding result was “binds”.

In the case of H2A1 (from UniProt P04911 1-132), the binding entry was “binds”.

Regarding Gcn5 (from UniProt Q03330 1-439), the binding entry is “binds”.

Arp7 (from UniProt Q12406 1-477): the binding result is “binds”.

As to Yo11b (from UniProt Q12273 1-1755), the binding result is on record as “binds”.

For the molecule Hsf1 (from UniProt P10961 1-833), the binding entry is reported as “binds”.

For the molecule Snf12 (from UniProt P53628 1-566), the binding entry is given as “binds”.

With Imdh1 (from UniProt P39567 1-403), the binding result was “binds”.

On to Rsc4 (from UniProt Q02206 1-625), for which the binding result is reported as “binds”.

Imdh3 (from UniProt P50095 1-523): the binding entry is listed as “binds”.

Rsc3 (from UniProt Q06639 1-885): the binding result is “binds”.

For the molecule Snf2 (from UniProt P22082 1-1703), the binding result was “binds”.

Take Pob3 (from UniProt Q04636 1-552): the binding entry is given as “binds”.

Turning to Isw1 (from UniProt P38144 1-1129), the binding result is recorded as “binds”.

As for Taf12 (from UniProt Q03761 1-539), the binding entry is on record as “binds”.

On to Crz1 (from UniProt P53968 1-678), for which the binding result is listed as “binds”.

Consider Ino80 (from UniProt P53115 1-1489), for which the binding entry is listed as “binds”.

B1: Enp1 (protein, UniProt P38333 1-483)
chain: MARASSTKARKQRHDPLLKDLDAAQGTLKKINKKKLAQNDAANHDAANEEDGYIDSKASRKILQLAKEQQDEIEGEELAESERNKQFEARFTTMSYDDEDEDEDEDEEAFGEDISDFEPEGDYKEEEEIVEIDEEDAAMFEQYFKKSDDFNSLSGSYNLADKIMASIREKESQVEDMQDDEPLANEQNTSRGNISSGLKSGEGVALPEKVIKAYTTVGSILKTWTHGKLPKLFKVIPSLRNWQDVIYVTNPEEWSPHVVYEATKLFVSNLTAKESQKFINLILLERFRDNIETSEDHSLNYHIYRAVKKSLYKPSAFFKGFLFPLVETGCNVREATIAGSVLAKVSVPALHSSAALSYLLRLPFSPPTTVFIKILLDKKYALPYQTVDDCVYYFMRFRILDDGSNGEDATRVLPVIWHKAFLTFAQRYKNDITQDQRDFLLETVRQRGHKDIGPEIRRELLAGASREFVDPQEANDDLMIDVN
Turning to B1, the binding result is “binds”.

B2: Drs1 (protein, UniProt P32892 1-752)
chain: MVVGTKKYSNLDFVPTISDSEDDVPILDSSDDEKVEAKKTTKKRKGKNNKKKVSEGDNLDEDVHEDLDAGFKFDLDADDTTSNFQGWNFLAEGESNKDDAEAFVKKDVDLDKIIRRKGGLVKMAHIDSKQEEETEKEKVEKENDSDDEELAMDGFGMGAPMNNGDENQSEEEEEEEEKEEEEEEEEEQEEMTLEKGGKDDEIDEEDDSEEAKADFYAPETEGDEAKKQMYENFNSLSLSRPVLKGLASLGYVKPSPIQSATIPIALLGKDIIAGAVTGSGKTAAFMIPIIERLLYKPAKIASTRVIVLLPTRELAIQVADVGKQIARFVSGITFGLAVGGLNLRQQEQMLKSRPDIVIATPGRFIDHIRNSASFNVDSVEILVMDEADRMLEEGFQDELNEIMGLLPSNRQNLLFSATMNSKIKSLVSLSLKKPVRIMIDPPKKAATKLTQEFVRIRKRDHLKPALLFNLIRKLDPTGQKRIVVFVARKETAHRLRIIMGLLGMSVGELHGSLTQEQRLDSVNKFKNLEVPVLICTDLASRGLDIPKIEVVINYDMPKSYEIYLHRVGRTARAGREGRSVTFVGESSQDRSIVRAAIKSVEENKSLTQGKALGRNVDWVQIEETNKLVESMNDTIEDILVEEKEEKEILRAEMQLRKGENMLKHKKEIQARPRRTWFQSESDKKNSKVLGALSRNKKVTNSKKRKREEAKADGNGARSYRKTKTDRIADQERTFKKQKSTNSNKKKGFKSRR
For the molecule B2, the binding result is “binds”.

B3: Dbp10 (protein, UniProt Q12389 1-995)
chain: MAGVQKRKRDLEDQDDNGSEEDDIAFDIANEIALNDSESDANDSDSEVEADYGPNDVQDVIEYSSDEEEGVNNKKKAENKDIKKKKNSKKEIAAFPMLEMSDDENNASGKTQTGDDEDDVNEYFSTNNLEKTKHKKGSFPSFGLSKIVLNNIKRKGFRQPTPIQRKTIPLILQSRDIVGMARTGSGKTAAFILPMVEKLKSHSGKIGARAVILSPSRELAMQTFNVFKDFARGTELRSVLLTGGDSLEEQFGMMMTNPDVIIATPGRFLHLKVEMNLDLKSVEYVVFDEADRLFEMGFQEQLNELLASLPTTRQTLLFSATLPNSLVDFVKAGLVNPVLVRLDAETKVSENLEMLFLSSKNADREANLLYILQEIIKIPLATSEQLQKLQNSNNEADSDSDDENDRQKKRRNFKKEKFRKQKMPAANELPSEKATILFVPTRHHVEYISQLLRDCGYLISYIYGTLDQHARKRQLYNFRAGLTSILVVTDVAARGVDIPMLANVINYTLPGSSKIFVHRVGRTARAGNKGWAYSIVAENELPYLLDLELFLGKKILLTPMYDSLVDVMKKRWIDEGKPEYQFQPPKLSYTKRLVLGSCPRLDVEGLGDLYKNLMSSNFDLQLAKKTAMKAEKLYYRTRTSASPESLKRSKEIISSGWDAQNAFFGKNEEKEKLDFLAKLQNRRNKETVFEFTRNPDDEMAVFMKRRRKQLAPIQRKATERRELLEKERMAGLSHSIEDEILKGDDGETGYTVSEDALKEFEDADQLLEAQENENKKKKKPKSFKDPTFFLSHYAPAGDIQDKQLQITNGFANDAAQAAYDLNSDDKVQVHKQTATVKWDKKRKKYVNTQGIDNKKYIIGESGQKIAASFRSGRFDDWSKARNLKPLKVGSRETSIPSNLLEDPSQGPAANGRTVRGKFKHKQMKAPKMPDKHRDNYYSQKKKVEKALQSGISVKGYNNAPGLRSELKSTEQIRKDRIIAEKKRAKNARPSKKRKF
Turning to B3, the binding entry was “binds”.

B4: Dbp7 (protein, UniProt P36120 1-742)
chain: MSDEDSMLLNFTTNEDTAGSSYKQAAKVTGGRWKDRRRMKMKLEGKTVSRKRKANTTGDEGIIPGRGENSIKKLHKESSYSSEEQEKYKGRNAHNTQGRTLPADSQFVSSLFTSNREITTAVNTNIHDENVAINPSNAPLKGDQFASLGVSSLLVSHLEQKMRIKKPTSIQKQAIPQIIGNAGKNDFFIHAQTGSGKTLSYLLPIISTILNMDTHVDRTSGAFALVIAPTRELASQIYHVCSTLVSCCHYLVPCLLIGGERKKSEKARLRKGCNFIIGTPGRVLDHLQNTKVIKEQLSQSLRYIVLDEGDKLMELGFDETISEIIKIVHDIPINSEKFPKLPHKLVHMLCSATLTDGVNRLRNVALKDYKLISNGTKKDSDIVTVAPDQLLQRITIVPPKLRLVTLAATLNNITKDFIASGQQSKTLRTIVFVSCSDSVEFHYDAFSGSDGHHKNLTGDSVRLLTKGNTMFPCFSDSRDPDVVIYKLHGSLSQQMRTSTLQHFARDNEATKGKHLIMFCTDVASRGLDLPHVGSVIELDPPFAVEDHLHRVGRTARAGEKGESLLFLLPGEEEKYMDYIQPYHPMGWELLKFDKEILMPAFKDVNVNRNDKFIRKDEKSSKNKDVGDKEYEWDTNATTWHLNIERRVVGDSAFKNLAVKGFISHVRAYATHISQEKKFFNVKFLHLGHLAKSFGLRERPKAMGLQSSKDGNSEKKPTKENSKNKMFRMARMAEKQIASEFNY
With B4, the binding result is recorded as “binds”.
